Read-outs that look alike come from different tables or passages of the source. These are yes or no findings as the source states them, for the method shown. Binding seen in cells or lysates may run through a third protein. Some entries that bind do so weakly or less than the wild type.
B1: O-GlcNAc transferase (OGT), endogenous (enzyme, UniProt O15294 1-1046)
chain: MASSVGNVADSTEPTKRMLSFQGLAELAHREYQAGDFEAAERHCMQLWRQEPDNTGVLLLLSSIHFQCRRLDRSAHFSTLAIKQNPLLAEAYSNLGNVYKERGQLQEAIEHYRHALRLKPDFIDGYINLAAALVAAGDMEGAVQAYVSALQYNPDLYCVRSDLGNLLKALGRLEEAKACYLKAIETQPNFAVAWSNLGCVFNAQGEIWLAIHHFEKAVTLDPNFLDAYINLGNVLKEARIFDRAVAAYLRALSLSPNHAVVHGNLACVYYEQGLIDLAIDTYRRAIELQPHFPDAYCNLANALKEKGSVAEAEDCYNTALRLCPTHADSLNNLANIKREQGNIEEAVRLYRKALEVFPEFAAAHSNLASVLQQQGKLQEALMHYKEAIRISPTFADAYSNMGNTLKEMQDVQGALQCYTRAIQINPAFADAHSNLASIHKDSGNIPEAIASYRTALKLKPDFPDAYCNLAHCLQIVCDWTDYDERMKKLVSIVADQLEKNRLPSVHPHHSMLYPLSHGFRKAIAERHGNLCLDKINVLHKPPYEHPKDLKLSDGRLRVGYVSSDFGNHPTSHLMQSIPGMHNPDKFEVFCYALSPDDGTNFRVKVMAEANHFIDLSQIPCNGKAADRIHQDGIHILVNMNGYTKGARNELFALRPAPIQAMWLGYPGTSGALFMDYIITDQETSPAEVAEQYSEKLAYMPHTFFIGDHANMFPHLKKKAVIDFKSNGHIYDNRIVLNGIDLKAFLDSLPDVKIVKMKCPDGGDNADSSNTALNMPVIPMNTIAEAVIEMINRGQIQITINGFSISNGLATTQINNKAATGEEVPRTIIVTTRSQYGLPEDAIVYCNFNQLYKIDPSTLQMWANILKRVPNSVLWLLRFPAVGEPNIQQYAQNMGLPQNRIIFSPVAPKEEHVRRGQLADVCLDTPLCNGHTTGMDVLWAGTPMVTMPGETLASRVAASQLTCLGCLELIAKNRQEYEDIAVKLGTDLEYLKKVRGKVWKQRISSPLFNTKQYTMELERLYLQMWEHYAAGNKPDHMIKPVEVTESA

Amino acid sequences for entries named in this document (tags omitted). A change or cut given only in a name is not applied to a line headed by its entry.
UniProt Q13330, whole entry: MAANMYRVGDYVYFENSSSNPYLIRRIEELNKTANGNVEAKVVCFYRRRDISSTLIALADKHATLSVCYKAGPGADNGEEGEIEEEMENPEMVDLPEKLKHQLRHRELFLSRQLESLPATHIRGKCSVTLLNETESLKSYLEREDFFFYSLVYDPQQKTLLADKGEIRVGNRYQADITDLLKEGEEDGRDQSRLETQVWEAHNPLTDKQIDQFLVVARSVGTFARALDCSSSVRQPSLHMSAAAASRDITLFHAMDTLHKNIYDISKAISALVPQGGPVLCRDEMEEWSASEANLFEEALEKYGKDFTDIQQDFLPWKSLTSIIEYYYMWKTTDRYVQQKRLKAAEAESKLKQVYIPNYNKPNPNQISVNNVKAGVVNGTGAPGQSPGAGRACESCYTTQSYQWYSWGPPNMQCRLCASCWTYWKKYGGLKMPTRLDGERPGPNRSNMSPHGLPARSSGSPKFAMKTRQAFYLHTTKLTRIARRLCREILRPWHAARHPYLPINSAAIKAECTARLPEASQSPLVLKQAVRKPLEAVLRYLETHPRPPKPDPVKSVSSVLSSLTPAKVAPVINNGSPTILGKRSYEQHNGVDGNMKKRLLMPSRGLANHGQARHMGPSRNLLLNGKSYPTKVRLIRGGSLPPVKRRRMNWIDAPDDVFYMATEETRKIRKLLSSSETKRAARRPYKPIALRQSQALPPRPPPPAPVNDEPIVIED
UniProt Q13547, whole entry: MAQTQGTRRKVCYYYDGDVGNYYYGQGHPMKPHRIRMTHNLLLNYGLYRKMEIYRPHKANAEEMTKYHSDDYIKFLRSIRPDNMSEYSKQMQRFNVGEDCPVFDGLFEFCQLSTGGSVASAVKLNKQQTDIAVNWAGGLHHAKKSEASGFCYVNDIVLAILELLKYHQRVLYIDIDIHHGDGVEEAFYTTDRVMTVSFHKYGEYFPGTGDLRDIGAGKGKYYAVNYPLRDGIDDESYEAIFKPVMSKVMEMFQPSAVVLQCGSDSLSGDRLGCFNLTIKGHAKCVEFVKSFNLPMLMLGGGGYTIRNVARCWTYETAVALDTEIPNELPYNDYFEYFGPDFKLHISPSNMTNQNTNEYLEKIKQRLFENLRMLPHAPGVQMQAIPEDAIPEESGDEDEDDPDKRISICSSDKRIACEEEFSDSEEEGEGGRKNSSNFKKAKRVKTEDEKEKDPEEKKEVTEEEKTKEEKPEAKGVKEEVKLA

Columns and labels:
Assay in all cases: co-IP
[1] = biological target: HA-tagged wild-type MTA1 (HA-MTA1-WT) (human) (UniProt Q13330)
[2] = biological target: HA-MTA1-S237A/S241A/S246A (HA-MTA1-3A) (human) (UniProt Q13330)
[3] = biological target: HA-tagged wild-type MTA1 (HA-MTA1-WT) (human) (UniProt Q13330); remark: listed apart in the source

Row | Molecule | binding [1] | binding [2] | binding [3]
1 | HDAC1, endogenous (from UniProt Q13547 1-482) (enzyme) | binds |  | 
2 | B1 |  | binds | binds
